Assay results: PubChem BioAssay AID493014 (National Center for Advancing Translational Sciences (NCATS), 2011)
Some of the results follow. The main result of the screen is listed elsewhere. These columns were measured beside it and carry no call. The list favours compounds with an active or inconclusive main result. Potencies come from curve fits of mixed quality, noted in brackets.

Assay: qHTS Assay to Find Inhibitors of Chronic Active B-Cell Receptor Signaling
Conditions: ABC-DLBCL IkBa-CBG/CBR reporter, luminescence ratio (green luciferase fused to IkBa over red control in TMD8 lymphoma cells), 4 h
How it was run: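 TMD8 human ABC-DLBCL cells with doxycycline-inducible IκBα–green luciferase fusion and unfused red luciferase, in 0.5% FBS medium; compounds up to 46 uM, 4 h at 37C. Green/red luminescence ratio, filter-overlap corrected, fitted to concentration-response curves.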

[1] = measured here: CBR red luminescence, cell number
[2] = measured here: IkBa-CBG green luminescence

Row | SMILES | AC50 [1] | AC50 [2]
1 | COc1ccc(C(=O)NNC(=O)Nc2ccc(Cl)cc2)cc1 | 12.6 µM [falling, partial curve] | –
2 | c1ccc(OCCSc2nc3ccccc3o2)cc1 | 3.16 µM [rising, full curve] | –
3 | CC(/C=N/N1CCN(Cc2ccccc2)CC1)=C\c1ccccc1 | 35.5 µM [rising, partial curve, poor fit] | –
4 | COc1ccc(NS(=O)(=O)c2cccs2)cc1S(=O)(=O)N1CCCCC1 | 3.26 µM [falling, full curve, poor fit] | –
5 | O=C(Nc1ccc(N2CCCC2)cc1)c1cc(Cl)ccc1Cl | – | 12.6 µM [falling, partial curve, poor fit]
6 | COc1ccc(NC(=O)c2ccccc2[N+](=O)[O-])cc1OC | 16.4 µM [falling, single point] | –
7 | CC(/C=N/NC(=O)c1cccs1)=C\c1ccccc1 | 10 µM [falling, partial curve, poor fit] | –
8 | Cc1ccc(N2NC(=O)/C(=C\c3cc4c(cc3[N+](=O)[O-])OCO4)C2=O)cc1C | 20.6 µM [falling, single point] | –
9 | CCOC(=O)c1sc(NC(C)=O)nc1-c1ccccc1 | 0.316 µM [falling, full curve, poor fit] | –
10 | CN1C/C(=C/c2ccsc2)C(=O)/C(=C/c2ccsc2)C1 | 6.51 µM [falling, single point] | –
11 | Cc1nc(-c2ccc(NC(=O)c3ccccc3Br)cc2)cs1 | 9.2 µM [falling, partial curve, poor fit] | –
12 | CCOc1ccc(N=Nc2c(N)[nH][nH]c2=O)cc1 | 10.3 µM [rising, partial curve, poor fit] | –
13 | CCN(CC)C(=O)c1sc2nc(-c3cccs3)cc(-c3cccs3)c2c1N | 35.5 µM [falling, single point] | –
14 | COc1ccc2[nH]c(C(=O)O)c(NC(=O)c3cc(OC)c(OC)c(OC)c3)c2c1 | 1.12 µM [rising, partial curve, poor fit] | –
15 | COc1cc2c(cc1OC)CN(C(=O)c1ccc([N+](=O)[O-])o1)CC2 | 0.708 µM [rising, partial curve, poor fit] | –
16 | CCc1ccc(C(=O)N/N=C(\C)c2ccncc2)s1 | 15.8 µM [falling, partial curve, poor fit] | –
17 | CCOc1ccc(OCCC(=O)OCC(=O)N2CCN(S(=O)(=O)c3ccc(C)cc3)CC2)cc1 | 10.3 µM [falling, partial curve] | 11.6 µM [rising, partial curve, poor fit]
18 | COc1cc2c(c(OC)c1OC)-c1ccc(OC)c(=O)cc1[C@@H](N(C)CC#CCO)CC2 | 0.794 µM [rising, full curve] | 1 µM [falling, full curve]
19 | O=C(COc1ccccc1C(=O)NCc1ccncc1)Nc1ccc(Br)cc1 | 35.5 µM [falling, single point] | –
20 | Cc1ccnc(NC(=O)c2ccccc2NC(=O)c2ccccc2)c1 | 12.6 µM [rising, partial curve, poor fit] | –
21 | Cc1ccsc1/C=N/Nc1ccc(F)cc1F | 28.2 µM [rising, single point] | –
22 | CN(c1ccccc1)S(=O)(=O)c1cccc(NC(=O)c2ccc3ncsc3c2)c1 | 17.8 µM [falling, partial curve, poor fit] | –

Record cards, as listed above. Values in the order: AC50 [1] | AC50 [2]
`O=C(COc1ccccc1C(=O)NCc1ccncc1)Nc1ccc(Br)cc1` is listed as 35.5 µM [falling, single point] | –
`COc1ccc(NC(=O)c2ccccc2[N+](=O)[O-])cc1OC` is listed as 16.4 µM [falling, single point] | –

(further entries)

Row | SMILES | AC50 [1] | AC50 [2]
23 | N#Cc1ccccc1OCC(=O)N1CCN(C(=O)c2ccco2)CC1 | 3.98 µM [falling, full curve, poor fit] | –
24 | Cn1c(=O)c2c(nc(N/N=C/c3ccncc3)n2Cc2ccccc2)n(C)c1=O | 6.31 µM [falling, partial curve, poor fit] | –
25 | CC1CN(c2nn3c(=O)c4ccccc4nc3c3ccccc23)CC(C)O1 (configuration not stated) | 3.66 µM [falling, partial curve, poor fit] | –
26 | COc1cccc(/C=C/C(=O)OCC(=O)c2ccc3c(c2)NC(=O)CO3)c1 | 6.51 µM [rising, single point] | –
27 | CC(C)c1nnc(NC(=O)C2CCCO2)s1 (configuration not stated) | 12.6 µM [rising, single point] | –
28 | COc1ccc(N2CCN(C(=O)C34CCC(C)(C(=O)C3)C4(C)C)CC2)cc1 (configuration not stated) | 29.1 µM [rising, single point] | –
29 | NC(=O)c1ccsc1NC(=O)COC(=O)Cc1ccccc1Cl | 23.1 µM [falling, partial curve] | –
30 | CCOc1ccc(NS(=O)(=O)c2ccc(NS(=O)(=O)c3cccs3)cc2)cc1 | 7.08 µM [falling, partial curve, poor fit] | –
31 | COc1cccc(C2=CC(c3ccc(OC)c(OC)c3OC)n3nnnc3N2)c1 (configuration not stated) | 29.1 µM [falling, single point] | –
32 | COc1ccc(C(=O)COC(=O)c2cccnc2Cl)c(OC)c1 | 31.6 µM [falling, single point] | –
33 | O=C(c1ccc(Cl)cc1)c1cnc(-c2ccc(Cl)cc2)s1 | 0.398 µM [falling, partial curve, poor fit] | –
34 | O=C(c1ccc(COc2ccccc2Br)cc1)N1CCCCCC1 | 12.6 µM [falling, partial curve, poor fit] | –
35 | Cc1cc(C)c(C#N)c(SCc2ccccc2)n1 | 23.1 µM [rising, single point] | –
36 | CC1(C)CC(=O)/C(=C\c2cccc([N+](=O)[O-])c2)C(C)(C)N1 | 13 µM [falling, partial curve] | –
37 | Cc1cc(C)n2nc(SCCCC(=O)c3ccccc3)nc2n1 | 14.1 µM [rising, single point] | –
38 | Cc1ccc(NC(=S)NC(NC(=O)c2ccco2)C(Cl)(Cl)Cl)cc1 (configuration not stated) | 20.6 µM [falling, partial curve, poor fit] | –
39 | Cc1cnc(C(=O)Nc2ccccc2-c2ccc(C)o2)cn1 | 10.3 µM [falling, single point] | –
40 | Cn1cccc1CC(=O)N/N=C/c1ccc(Cl)cc1 | 35.5 µM [falling, single point] | –
41 | Cc1cc(Nc2ccc(Br)cc2)n2nc(C)nc2n1 | 20.6 µM [falling, single point] | –
42 | O=C(COc1ccc2c(c1)CCC2)N1CCN(c2ccccc2F)CC1 | 0.0731 µM [rising, full curve, poor fit] | –
43 | COc1cc(C=O)ccc1OCCSc1ccc(C)cc1 | 5.8 µM [rising, full curve] | –
44 | CC(C)N(c1ccccc1)c1ccc(NC(=O)CCl)cc1 | 3.55 µM [falling, full curve] | –

Filtered by structure, the compounds so far containing an NH in an aromatic ring (two)
Row | SMILES | AC50 [1] | AC50 [2]
12 | CCOc1ccc(N=Nc2c(N)[nH][nH]c2=O)cc1 | 10.3 µM [rising, partial curve, poor fit] | –
14 | COc1ccc2[nH]c(C(=O)O)c(NC(=O)c3cc(OC)c(OC)c(OC)c3)c2c1 | 1.12 µM [rising, partial curve, poor fit] | –

Following part

Row | SMILES | AC50 [1] | AC50 [2]
45 | Cc1nn2c([nH]c(=O)c3ccccc32)c1C=O | 1.12 µM [falling, full curve, poor fit] | –
46 | Cc1ccc(/C=C(\C#N)C(=O)Nc2ccccn2)o1 | 5.01 µM [falling, full curve] | –
47 | CCN(CC)CCNC(=O)c1ccc(NC(=O)c2cccc(S(=O)(=O)N3c4ccccc4CC3C)c2)cc1 (configuration not stated) | 3.55 µM [falling, partial curve] | –
48 | Cc1c(Cl)cnc(NC(=O)COC(=O)[C@@H](NC(=O)c2ccco2)C(C)C)c1Cl | 0.164 µM [rising, full curve, poor fit] | –
49 | COc1c(Cl)cccc1-c1cn2ccccc2n1 | 0.631 µM [rising, partial curve, poor fit] | –
50 | COc1cccc(NC(=O)C2CC(=O)N(Cc3ccc(C)cc3)C2)c1 (configuration not stated) | 8.91 µM [falling, partial curve, poor fit] | –
51 | Cc1cccc(-n2c(C)cc(C=C3C(=O)c4ccccc4C3=O)c2C)c1 | 3.16 µM [rising, partial curve, poor fit] | –
52 | CC(=O)N(O)CCCCCNC(=O)CCC(=O)N(O)CCCCCNC(=O)CCC(=O)N(O)CCCCCNC(=O)CCC(=O)O | 6.51 µM [rising, single point] | –
53 | Cc1ccc(F)cc1NC(=O)C1CCN(c2cnccn2)CC1 | 3.55 µM [rising, partial curve, poor fit] | –
54 | COc1ccccc1CCNC(=O)CSc1nnc2ccc(-c3ccncc3)nn12 | 12.6 µM [rising, partial curve, poor fit] | –
55 | CCC(C(=O)Nc1ccsc1C(=O)OC)c1ccccc1 (configuration not stated) | 12.6 µM [rising, single point] | –
56 | CC(C)Sc1nnc(NC(=O)CCc2ccccc2)s1 | 2.82 µM [rising, full curve, poor fit] | –
57 | CCC(CC)C(=O)c1c[nH]c(C(=O)NC2CCCCCC2)c1 | 11.2 µM [rising, partial curve, poor fit] | –
58 | Nc1c(S(=O)(=O)c2cccs2)c2nc3ccccc3nc2n1Cc1cccs1 | 3.98 µM [falling, partial curve, poor fit] | –
59 | Fc1ccc(NC(=S)N/N=C/c2ccc(F)c(F)c2)c(F)c1 | 0.326 µM [falling, full curve] | –
60 | O=C(Nc1ccc(OC(F)(F)F)cc1)c1cnccn1 | 11.2 µM [falling, single point] | –
61 | COCCNc1ncnc2c1cnn2-c1ccc(Cl)cc1 | 14.1 µM [falling, single point] | –
62 | CCOC(=O)c1sc(NC(=O)c2ccc(C)o2)nc1C | 0.224 µM [falling, full curve] | –
63 | O=C(NCc1ccccc1)C1CCCC1 | 5.62 µM [falling, single point] | –
64 | CC(C)CC(NC(=O)c1cccs1)c1nnc(SCc2ccc(Cl)c(Cl)c2)n1C (configuration not stated) | 20.6 µM [falling, partial curve] | –
65 | NC(=O)c1ccsc1NC(=O)c1ccc(N2CCCC2=O)cc1 | 12.6 µM [falling, partial curve] | –
